Experiment [1] relates to HeLa K (ENP1 immunofluorescence, +LMB). Put plainly: fraction of cells with nucleolar or nucleolar/nucleoplasmic ENP1 signal (MainHitrate); higher = more cells with nucleolar/nuclear readout signal (for ENP1 -LMB: less RNAPI inhibition; for +LMB ENP1 and RP reporters: stronger nuclear/nucleolar retention, i.e. ribosome biogenesis defect). As to conditions: concentration: 1 µM; treatment time: 6 h; ENP1 +LMB; leptomycin B: 20 nM, last 1.5 h.

In experiment [2] the test system is HeLa K (ENP1 immunofluorescence, no LMB). The description is as above. The note with it: concentration: 1 µM; treatment time: 6 h; ENP1 -LMB; leptomycin B: none.
Experiment [3] relates to HeLa RPS2-YFP reporter. In words: fraction of reporter-positive cells with nuclear (nucleolar or nucleolar/nucleoplasmic) RPS2-YFP (MainHitrate); higher = more cells with nucleolar/nuclear readout signal (for ENP1 -LMB: less RNAPI inhibition; for +LMB ENP1 and RP reporters: stronger nuclear/nucleolar retention, i.e. ribosome biogenesis defect). The note with it: concentration: 1 µM; treatment time: 6 h.

Experiment [4] relates to HeLa RPL29-GFP reporter. In words: fraction of reporter-positive cells with nuclear (nucleolar or nucleolar/nucleoplasmic) RPL29-GFP (MainHitrate); higher = more cells with nucleolar/nuclear readout signal (for ENP1 -LMB: less RNAPI inhibition; for +LMB ENP1 and RP reporters: stronger nuclear/nucleolar retention, i.e. ribosome biogenesis defect). As to conditions: concentration: 1 µM; treatment time: 6 h.

Structures can show the parent of a compound that is named as a salt. ± gives the standard deviation of the averaged measurements. The list shows a part of the results. Values are raw readings; no control value is given beside them.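 HeLa cells imaged for ribosome-assembly readouts (ENP1 staining with or without export block, or inducible tagged ribosomal protein reporters); machine learning classified each cell's signal location against solvent (DMSO) controls. Hits exceeded the DMSO false-positive mean by five standard deviations, then were visually confirmed; three biological replicates.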

For the molecule `CC(=O)[C@H]1CC[C@H]2[C@@H]3CCC4=CC(=O)CC[C@]4(C)[C@H]3CC[C@]12C` [Progesterone (Prometrium)], the fraction in experiment [1] is 0.0986 ± 0.078; in experiment [2], 0.9967 ± 0.0058. The “fraction of reporter-positive cells with nuclear” value (“fraction … with nuclear” below) in experiment [3] is 0.135 ± 0.067; in experiment [4], 0.214 ± 0.054.

Turning to `CCOC(=O)C1=C[C@@H](OC(CC)CC)[C@H](NC(C)=O)[C@@H](N)C1` [Oseltamivir phosphate (Tamiflu)], the fraction in experiment [1] came to 0.067 ± 0.087; in experiment [2], 0.986 ± 0.025. For the same molecule, the “fraction … with nuclear” value in experiment [3] turned out to be 0.107 ± 0.058; in experiment [4] it was 0.204 ± 0.046.

Take `COc1cc2nc(N3CCN(C(=O)C4CCCO4)CC3)nc(N)c2cc1OC` (stereo not given) [Terazosin HCl (Hytrin)]: the fraction in experiment [1] amounted to 0.113 ± 0.16; in experiment [2], 0.9955 ± 0.0078. The entries for the “fraction … with nuclear” value in experiment [3] and in experiment [4] were 0.141 ± 0.078 and 0.232 ± 0.13, respectively.

Turning to `O=c1ccn([C@@H]2O[C@H](CO)[C@@H](O)[C@H]2O)c(=O)[nH]1` [Uridine], the fraction was found to be 0.135 ± 0.19 in experiment [1] and 0.99 ± 0.017 in experiment [2]. Besides, the “fraction … with nuclear” value in experiment [3] was 0.15 ± 0.069; in experiment [4] it was 0.224 ± 0.12.

`Cn1c(=O)c2c(ncn2CC(O)CO)n(C)c1=O` (stereo not given) [Dyphylline (Dilor)]: the fraction in experiment [1] was found to be 0.114 ± 0.084; in experiment [2], 0.997 ± 0.0052. Further, the “fraction … with nuclear” value in experiment [3] was 0.117 ± 0.096; in experiment [4], 0.195 ± 0.041.

For `CC(C)(Oc1ccc(CCNC(=O)c2ccc(Cl)cc2)cc1)C(=O)O` [Bezafibrate], the values for the fraction in experiment [1] and in experiment [2] were 0.0396 ± 0.043 and 0.992 ± 0.013, respectively. Also, the figures for the “fraction … with nuclear” value in experiment [3] and in experiment [4] were 0.0764 ± 0.045 and 0.195 ± 0.034, respectively.

Regarding `CCc1nc(N)nc(N)c1-c1ccc(Cl)cc1` [Pyrimethamine], the figures for the fraction in experiment [1] and in experiment [2] were 0.105 ± 0.14 and 0.991 ± 0.015, respectively. Moreover, the “fraction … with nuclear” value in experiment [3] is 0.114 ± 0.056; in experiment [4] it was 0.211 ± 0.063.

`CC[C@]1(O)C[C@@H]2CN(CCc3c([nH]c4ccccc34)[C@@](C(=O)OC)(c3cc4c(cc3OC)N(C)[C@H]3[C@@](O)(C(=O)OC)[C@H](OC(C)=O)[C@]5(CC)C=CCN6CC[C@]43[C@@H]65)C2)C1` [Vinblastine]: the fraction in experiment [1] was 0.301 ± 0.15; in experiment [2], 0.9968 ± 0.0055. Moreover, the “fraction … with nuclear” value in experiment [3] amounted to 0.192 ± 0.14; in experiment [4], 0.341 ± 0.15.

For `CC1(C)O[C@@H]2[C@@H](CO[C@@]3(COS(N)(=O)=O)OC(C)(C)O[C@@H]23)O1` [Topiramate], the fraction worked out at 0.186 ± 0.15 in experiment [1] and 0.9985 ± 0.0027 in experiment [2]. For the same molecule, the “fraction … with nuclear” value in experiment [3] was determined as 0.0945 ± 0.041; in experiment [4] it was 0.2 ± 0.048.

On to `Cc1ccccc1C(OCCN(C)C)c1ccccc1` (stereo not given) [Orphenadrine citrate (Norflex)], for which the fraction in experiment [1] was determined as 0.159 ± 0.24; in experiment [2], 0.9967 ± 0.0058. The “fraction … with nuclear” value in experiment [3] was 0.119 ± 0.1; in experiment [4], 0.223 ± 0.059.

For `NC1CCN(c2c(F)cc3c(=O)c(C(=O)O)cn(C4CC4)c3c2Cl)C1` (stereo not given), the fraction came to 0.105 ± 0.16 in experiment [1] and 0.993 ± 0.012 in experiment [2]. Also, the entries for the “fraction … with nuclear” value in experiment [3] and in experiment [4] were 0.138 ± 0.14 and 0.218 ± 0.091, respectively.

With `CC(/C=C1\SC(=S)N(CC(=O)O)C1=O)=C\c1ccccc1` [Epalrestat], the fraction came out at 0.134 ± 0.2 in experiment [1] and 0.985 ± 0.025 in experiment [2]. In addition, the “fraction … with nuclear” value is 0.0868 ± 0.078 in experiment [3] and 0.222 ± 0.062 in experiment [4].

As for `CCN1CCN(C(=O)N[C@@H](C(=O)N[C@@H]2C(=O)N3[C@@H]2SC(C)(C)[C@@H]3C(=O)O)c2ccccc2)C(=O)C1=O` [Piperacillin Sodium], the fraction in experiment [1] amounted to 0.101 ± 0.15; in experiment [2] it was 0.985 ± 0.025. Further, the “fraction … with nuclear” value was determined as 0.113 ± 0.1 in experiment [3] and 0.199 ± 0.068 in experiment [4].

As to `CC[C@@]1(O)C(=O)OCc2c1cc1n(c2=O)Cc2cc3c(CN(C)C)c(O)ccc3nc2-1` [Topotecan HCl], the fraction in experiment [1] turned out to be 0.178 ± 0.23; in experiment [2], 0.9945 ± 0.0096. The “fraction … with nuclear” value stood at 0.0686 ± 0.03 in experiment [3] and 0.174 ± 0.073 in experiment [4].

As to `CCn1cc(C(=O)O)c(=O)c2cc(F)c(N3CCNC(C)C3)c(F)c21` (stereo not given) [Lomefloxacin hydrochloride (Maxaquin)], the figures for the fraction in experiment [1] and in experiment [2] were 0.111 ± 0.15 and 0.992 ± 0.014, respectively. The results for the “fraction … with nuclear” value in experiment [3] and in experiment [4] were 0.129 ± 0.065 and 0.224 ± 0.063, respectively.

Take `CC(=O)/N=c1/sc(S(N)(=O)=O)nn1C` [Methazolamide]: the fraction in experiment [1] worked out at 0.0436 ± 0.036; in experiment [2] it was 0.987 ± 0.023. The “fraction … with nuclear” value in experiment [3] amounted to 0.0983 ± 0.098; in experiment [4] it was 0.191 ± 0.03.

In the case of `COc1cccc(N(C)C(=S)Oc2ccc3c(c2)CCCC3)n1` [Liranaftate], the fraction in experiment [1] amounted to 0.0872 ± 0.11; in experiment [2], 0.99 ± 0.017. For the same molecule, the “fraction … with nuclear” value was found to be 0.117 ± 0.088 in experiment [3] and 0.231 ± 0.077 in experiment [4].

`O=C(Nc1cccc2c(=O)cc(-c3nnn[nH]3)oc12)c1ccc(OCCCCc2ccccc2)cc1` [Pranlukast]: the figures for the fraction in experiment [1] and in experiment [2] were 0.123 ± 0.17 and 0.991 ± 0.016, respectively. For the same molecule, the “fraction … with nuclear” value turned out to be 0.13 ± 0.082 in experiment [3] and 0.226 ± 0.11 in experiment [4].

As for `CC(=O)OCC[N+](C)(C)C` [Acetylcholine chloride], the fraction in experiment [1] is 0.0716 ± 0.1; in experiment [2], 0.9952 ± 0.0083. Also, the “fraction … with nuclear” value was 0.0682 ± 0.046 in experiment [3] and 0.233 ± 0.057 in experiment [4].

Turning to `O=c1[nH]c(=O)n(C2CCCO2)cc1F` (stereo not given) [Ftorafur], the fraction was 0.0892 ± 0.087 in experiment [1] and 0.9987 ± 0.0022 in experiment [2]. In addition, the “fraction … with nuclear” value in experiment [3] is 0.0612 ± 0.011; in experiment [4], 0.232 ± 0.037.

`O=c1[nH]c(=O)n([C@H]2C[C@H](O)[C@@H](CO)O2)cc1C(F)(F)F` [Trifluridine (Viroptic)]: the values for the fraction in experiment [1] and in experiment [2] were 0.0899 ± 0.11 and 0.9992 ± 0.0014, respectively. The results for the “fraction … with nuclear” value in experiment [3] and in experiment [4] were 0.104 ± 0.083 and 0.181 ± 0.068, respectively.

In the case of `Oc1ccc(OC2CCCCO2)cc1` (stereo not given) [Deoxyarbutin], the fraction in experiment [1] was 0.102 ± 0.14; in experiment [2] it was 0.991 ± 0.015. The “fraction … with nuclear” value in experiment [3] turned out to be 0.136 ± 0.1; in experiment [4], 0.2 ± 0.074.

As to `O=C(O)c1cc(=O)c2c(OCC(O)COc3cccc4oc(C(=O)O)cc(=O)c34)cccc2o1` [Disodium Cromoglycate], the fraction in experiment [1] came to 0.128 ± 0.2; in experiment [2], 0.99 ± 0.017. Further, the “fraction … with nuclear” value in experiment [3] was found to be 0.11 ± 0.093; in experiment [4], 0.217 ± 0.075.

For `C=CC[N+]1([C@H]2C[C@H]3[C@@H]4CC[C@H]5C[C@H](O)[C@@H](N6CCOCC6)C[C@]5(C)[C@H]4CC[C@]3(C)[C@H]2OC(C)=O)CCCC1` [Rocuronium bromide], the fraction in experiment [1] turned out to be 0.133 ± 0.15; in experiment [2], 0.997 ± 0.0052. The “fraction … with nuclear” value was 0.119 ± 0.065 in experiment [3] and 0.213 ± 0.075 in experiment [4].

Take `CN1CCN(c2c(F)cc3c(=O)c(C(=O)O)cn4c3c2OCN4C)CC1` [Marbofloxacin]: the fraction in experiment [1] was found to be 0.0839 ± 0.027; in experiment [2], 0.9968 ± 0.0055. The “fraction … with nuclear” value came out at 0.0814 ± 0.063 in experiment [3] and 0.188 ± 0.026 in experiment [4].

The record behind these values is the supplement of paper PMC12542422.
